Experimental data: patent publication US11931349B2, “Iron chelators in tumor therapy” (Deutsches Krebsforschungszentrum Stiftung des öffentlichen …, priority 2017, dated 2024)
At least one structure is not confirmed: it was looked up by name or label, or the drawing left a doubt.

Test system: mTOR signaling (P-S6K and P-4E-BP-1)
Experiment: Western blot of phosphorylated mTOR substrates
Type: cell-based
Details: HeLa, 50 nM rapamycin, 48 h

CO[C@H]1C[C@@H]2CC[C@@H](C)[C@@](O)(O2)C(=O)C(=O)N2CCCC[C@H]2C(=O)O[C@H]([C@H](C)C[C@@H]2CC[C@@H](O)[C@H](OC)C2)CC(=O)[C@H](C)/C=C(\C)[C@@H](O)[C@@H](OC)C(=O)[C@H](C)C[C@H](C)/C=C/C=C/C=C/1C [rapamycin]
phosphorylated substrates of active mTOR signaling upon rapamycin: downregulation of phosphorylated substrates of the active mTOR signaling
